Laboratory results published in paper PMC8209669.
No constants are given. Whether binding was seen depends on the method and setting. Binding seen in cells or lysates may run through a third protein. Some entries that bind do so weakly or less than the wild type.

Target: T1, endogenous allophycocyanin (APC) core of the Synechocystis phycobilisome (Synechocystis sp. PCC 6803 (endogenous)) (UniProt Q01951+Q01952)
T1 sequence 1: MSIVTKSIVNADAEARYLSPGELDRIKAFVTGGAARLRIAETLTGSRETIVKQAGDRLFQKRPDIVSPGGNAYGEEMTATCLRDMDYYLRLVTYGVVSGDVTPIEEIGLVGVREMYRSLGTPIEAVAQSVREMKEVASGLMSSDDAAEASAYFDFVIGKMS
T1 sequence 2: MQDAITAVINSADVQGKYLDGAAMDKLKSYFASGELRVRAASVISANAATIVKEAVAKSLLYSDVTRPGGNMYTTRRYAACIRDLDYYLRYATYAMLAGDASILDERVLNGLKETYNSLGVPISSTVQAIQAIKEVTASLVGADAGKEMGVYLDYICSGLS
Assay: co-sedimentation; sucrose step gradient (0.25-2.0 M sucrose in 0.8 M phosphate buffer, pH 7.0) of phycobilisome extracts of strains SynBAC2C1, SynBA, TeBA and SynO; 220,000 g, 18 h, 20 °C; bands precipitated with ammonium sulfate and analysed by SDS-PAGE with silver staining

In the case of “core-membrane linker ApcE (Synechocystis) (from UniProt Q55544 1-896)”, the binding is reported as “binds”.
